Experimental data taken from the supplement of paper PMC12889115.
This is one part of the list. Values are raw readings; no control value is given beside them.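 Primary screen: polymyxin B was added at a level permeabilizing Salmonella outer membranes while sparing inner membranes. DMSO wells, both with and without polymyxin B, established maximum growth. Plate-to-plate variation meant each plate was ranked on its own, and the lowest-OD600 compounds were selected as hits.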

System: Salmonella enterica serovar Typhimurium SL1344
Test: bacterial growth OD600 after 18 h with compound and polymyxin B; higher = more bacterial growth (less inhibition)
Conditions: 50 µM, Mueller-Hinton broth

Row | SMILES | bacterial growth OD600 (polymyxin B 0.75 µg/mL) | bacterial growth OD600 (polymyxin B 1 µg/mL)
1 | COCC(=O)Nc1cc(C(=O)N[C@@H](C)c2ccccc2)cc2ncn(CCc3ccccc3)c12 | 0.878 | –
2 | O=C(CCC(F)(F)F)N1CCC(C2CCN(Cc3cccnc3)CC2)C1 (stereo not given) | 0.958 | –
3 | COc1cccc(CC(C2CCN(C(=O)Cc3c(C)noc3C)CC2)N(C)C(=O)c2ccsc2)c1 (stereo not given) | 0.833 | –
4 | CN(CCCN1CCOCC1)C(=O)CCN1Cc2ccccc2OC(c2ccccc2)C1 (stereo not given) | 0.802 | –
5 | O=C(CCC1(Cc2ccccc2)CCC(=O)N1)NC[C@H]1CCc2ccccc2O1 (stereo not given in full) | 0.846 | –
6 | O=C1N(Cc2ccc(F)c(F)c2)CCCC1(O)CNCC1CCCCC1 (stereo not given) | – | 0.268
7 | CN(C)S(=O)(=O)N1C[C@H]2OC(=O)N(CCc3cccc(Cl)c3)[C@H]2C1 | – | 0.877
8 | Cc1ccccc1C1(CC(=O)N2CCC(c3ccc(F)cc3)C2)CC(=O)N(Cc2cccnc2)C1=O (stereo not given) | -0.001 | –
9 | Cc1cccc(-n2cc(CN(C)Cc3n[nH]c(=O)[nH]3)c(-c3cccc(F)c3)n2)c1 | – | 0.852
10 | CCN(CC)CCN(C)C(=O)c1ccc(OC2CCN(Cc3ccccn3)CC2)cc1 | – | 1.03
11 | O=C(/C=C/c1ccc(F)c(F)c1)NCC1CC(Cc2ccc(F)cc2)=NO1 (stereo not given) | 0.683 | –
12 | CC(C)[C@H](NC(=O)C1(N(C)Cc2ccccc2)Cc2ccccc2C1)C(N)=O | 0.247 | –
13 | Cc1cc(C)n(CCN(C)c2ccc(-c3nc(C4CC4)no3)cn2)n1 | 0.645 | –
14 | CCCn1c(C)c(CC(=O)N2CCOCC2)c2c1CC(C)(C)CC2=O | – | 0.797
15 | O=C(NCCc1ccccn1)C1CC12CCN(C(=O)/C=C/c1cccc(F)c1F)CC2 (stereo not given) | 0.806 | –
16 | CCO[C@H]1[C@H](NC(=O)c2ccco2)c2ccccc2C12CCN(Cc1ccc(OC)c(O)c1)CC2 | 0.798 | –
17 | COc1ccccc1C1CCCN1Cc1nc(-c2ccc(OC)c(C)c2OC)oc1C (stereo not given) | – | 0.698
18 | O=C(c1nc2sccn2c1CN1CCN(c2ccccc2F)CC1)N1CCCCC1 | – | 0.952
19 | Cn1cnnc1SCCNC(=O)c1cc(NC(=O)C2CCCO2)c2c(c1)nc(C1CCC1)n2C (stereo not given) | 0.741 | –
20 | Cn1cc(CN2CCCC(CCc3ccc(F)cc3F)C2)cn1 (stereo not given) | 1.03 | –
21 | Cc1ccc(OCc2cc(C(=O)N3CCCCC3c3nccs3)no2)cn1 (stereo not given) | – | 0.85
22 | COc1ccc(/C=C/CN2CCC3(CC2)c2ccccc2[C@@H](NC(=O)c2ccco2)[C@@H]3OC)cc1 | 0.8 | –
23 | CCOC(=O)CC1CCCCN1Cc1nc(N2CCCN(C(C)=O)CC2)c2cccc(C)c2n1 (stereo not given) | 0.819 | –
24 | CSCCCNC(=O)c1cc(Cn2c(C)nc3ccccc32)on1 | – | 0.776
25 | CC(C)Oc1ccc(CN2CC[C@@H](N3CCN(c4ccccn4)CC3)[C@H](O)C2)cc1CO | 0.806 | –
26 | CN(Cc1cn(Cc2ccccc2)nc1-c1ccc2c(c1)OCO2)CC1CCOCC1 | – | 1.05
27 | CCN1CC(CN(C)Cc2nc(-c3ccc(OC)c(OC)c3OC)no2)CC1=O (stereo not given) | – | 0.965
28 | CSc1ncc(CN(C)CC2CCCN(CCc3ccccc3C)C2)cn1 (stereo not given) | – | 0.773
29 | Cc1cc(-c2nnc(CCC(=O)N3CCN(C4CCCC4)CC3)o2)c(C)o1 | – | 0.746
30 | COCCCN1C(=O)CC(CC(=O)N(C)C(C2CC2)C2CC2)(c2ccccc2OC)C1=O (stereo not given) | 0.49 | –

Part of the list above in order of molecular weight, ascending.
Row | SMILES | bacterial growth OD600 (polymyxin B 0.75 µg/mL) | bacterial growth OD600 (polymyxin B 1 µg/mL)
28 | CSc1ncc(CN(C)CC2CCCN(CCc3ccccc3C)C2)cn1 (stereo not given) | – | 0.773
17 | COc1ccccc1C1CCCN1Cc1nc(-c2ccc(OC)c(C)c2OC)oc1C (stereo not given) | – | 0.698
19 | Cn1cnnc1SCCNC(=O)c1cc(NC(=O)C2CCCO2)c2c(c1)nc(C1CCC1)n2C (stereo not given) | 0.741 | –
